The supplement of paper PMC12823440, “Inhibitors supercharge kinase turnover through native proteolytic circuits” (Nature, 2025)
Structures can show the parent of a compound that is named as a salt. Some of the results follow. The calls rarely recur for the same compound in another form.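 Kinases were expressed as nanoluciferase fusions in K562 cells and luminescence was read every 4 h between 2 and 18 h as percent of control, DMSO set to 100% and a positive control to 0%. A time point counts as decreased when the signal drops significantly (2 sigma). The hit call is the authors' own, does not follow from the count of time points alone, and its rule is not shown.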

Chains of the proteins cited; added tags and fusions are not shown. Lines headed by an entry give the natural chain unless they say otherwise; changes in a name come on top.
UniProt Q00526: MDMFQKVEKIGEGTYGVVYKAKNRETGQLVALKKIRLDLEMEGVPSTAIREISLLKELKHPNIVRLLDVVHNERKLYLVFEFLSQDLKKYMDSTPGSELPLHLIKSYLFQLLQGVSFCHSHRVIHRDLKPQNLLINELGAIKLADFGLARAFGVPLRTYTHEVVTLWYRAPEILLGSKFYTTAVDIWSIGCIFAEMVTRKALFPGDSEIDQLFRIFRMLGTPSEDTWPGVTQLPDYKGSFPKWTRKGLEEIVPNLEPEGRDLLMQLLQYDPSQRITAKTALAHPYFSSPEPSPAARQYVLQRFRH

biological target: CDK3 (UniProt Q00526); assay: number of time points (of 5) at which kinase-Nluc abundance scored as decreased, DMSO-normalised (count); higher = more persistent destabilization; conditions: K562; 2-18 h

| Structure (SMILES) | number of time points |
| --- | --- |
| O=C1NC(=O)C(c2cn(-c3ccccc3)nc2-c2ccc(F)cc2)N1 (centres undefined) (10 µM) | 0 |
| O=[N+]([O-])c1ccc(Sc2cccc[n+]2[O-])c2nonc12 (2.5 µM) | 0 |
| COc1nc(-c2ccnc(NC(=O)C3CC3)c2)sc1C(N)=O [GSK-3β inhibitor 2] (10 µM) | 0 |
| CCN1/C(=C/C(C)=O)Sc2ccc(OC)cc21 (10 µM) | 1 |
| Nc1cccc(S(=O)(=O)N2CCCN(S(=O)(=O)c3ccc4c(c3)OCCO4)CC2)c1 (10 µM) | 0 |
| Nc1ncc(-c2ccc(C(=O)N3CCNCC3)cc2)nc1-c1ccc(C(F)(F)F)cc1 (10 µM) | 0 |
| CC[C@H](Nc1ncnc2[nH]cnc12)c1oc2ccccc2c(=O)c1-c1cccc(F)c1 [Tenalisib] (10 µM) | 0 |
| CC(C)(O)[C@@H]1CC[C@](C)([C@H]2[C@@H](O)C[C@@]3(C)[C@@H]4C[C@H](O[C@@H]5O[C@H](CO)[C@@H](O)[C@H](O)[C@H]5O)[C@H]5C(C)(C)[C@@H](O[C@@H]6OC[C@@H](O)[C@H](O)[C@H]6O[C@@H]6O[C@H](CO)[C@@H](O)[C@H](O)[C@H]6O)CC[C@@]56C[C@@]46CC[C@]23C)O1 [Astragaloside VI] (10 µM) | 0 |
| CC(=O)Nc1nc2ccc(-c3cnc(C)c(NC(=O)OC4CCCCC4)c3)cc2s1 (10 µM) | 0 |
| COc1ccccc1/C=C1\C(=O)Nc2ccccc21 (10 µM) | 0 |
| CC1(N)CCN(c2cnc3c(-c4cccc(Cl)c4Cl)[nH]nc3n2)CC1 (2.5 µM) | 0 |
| CC(C)C[C@H](NC(=O)[C@H](CCCCN)NC(=O)[C@H](CO)NC(=O)[C@@H](N)CC(C)C)C(N)=O [LSKL, Inhibitor of Thrombospondin (TSP-1) (TFA)] (10 µM) | 0 |
| CN1CC[C@H](c2c(O)cc(O)c3c(=O)cc(-c4ccc(C(F)(F)F)cc4Cl)oc23)[C@H]1CO [(2S,3R)-Voruciclib (hydrochloride)] (2.5 µM) | 0 |
| C[C@H]1[C@H](OC(=O)CCC(=O)O)O[C@@H]2O[C@@]3(C)CC[C@H]4[C@H](C)CC[C@@H]1[C@@]24OO3 [Artesunate] (2.5 µM) | 0 |
| c1ccc(-c2nn3c(c2-c2ccnc4cc(OCCN5CCOCC5)ccc24)CCC3)nc1 (10 µM) | 0 |
| COc1cc(N2CCC(N(C)C)CC2)ccc1Nc1ncc(Cl)c(Nc2ccccc2P(C)(C)=O)n1 (2.5 µM) | 0 |
| Cc1ccc(-c2ncn(-c3ccc(Nc4nccc(-c5cccc(N6CCOCC6)c5)n4)cc3)n2)cn1 (10 µM) | 0 |
| CC[C@@H]1[C@H](F)C(=O)N[C@@H]1COc1nccc2cc(C(N)=O)c(OC)cc12 (10 µM) | 0 |
| O=C1NC(=O)/C(=C/c2ccc(-c3ccc(F)cc3O)o2)S1 (10 µM) | 0 |
| Cc1cc(Nc2cc(CN3CCOCC3)c3nc(C)c(Cc4ccc(Cl)cc4F)n3n2)n[nH]1 [Gandotinib] (2.5 µM) | 0 |

In the list so far, 2 contain a CF3 group:

| Structure (SMILES) | number of time points |
| --- | --- |
| Nc1ncc(-c2ccc(C(=O)N3CCNCC3)cc2)nc1-c1ccc(C(F)(F)F)cc1 (10 µM) | 0 |
| CN1CC[C@H](c2c(O)cc(O)c3c(=O)cc(-c4ccc(C(F)(F)F)cc4Cl)oc23)[C@H]1CO [(2S,3R)-Voruciclib (hydrochloride)] (2.5 µM) | 0 |

(listing goes on)

| Structure (SMILES) | number of time points |
| --- | --- |
| CN(C)C(=O)c1ccc(S(=O)(=O)c2ccc(NC(=O)[C@@](C)(O)C(F)(F)F)c(Cl)c2)cc1 (10 µM) | 0 |
| CCc1cccc(CC)c1NC(=O)c1nn(C)c2c1CCc1cnc(Nc3ccc(C(=O)NC4CCN(C)CC4)cc3OC(F)(F)F)nc1-2 (2 µM) | 0 |
| O=C(Nc1ccc(Cl)cc1)C1CCCN(C(=O)c2cccc(-c3ccco3)c2)C1 (centres undefined) (2.5 µM) | 0 |
| CN(C)Cc1cccc(N=C(c2ccccc2)c2c(O)[nH]c3cc(C(=O)N(C)C)ccc23)c1 (10 µM) | 0 |
| OCCN(CCO)c1ccc(C(c2ccc(Cl)cc2)c2ccc(N(CCO)CCO)cc2)cc1 (10 µM) | 0 |
| CCOc1ccccc1C=C1C(=O)Nc2ccccc21 (10 µM) | 0 |
| COc1ncc(Nc2ncc([C@@H](C)N3CCN(S(C)(=O)=O)CC3)cc2-c2nc(C)nc(N)n2)cc1F (10 µM) | 0 |
| O=C(CO)N1CCC(c2n[nH]c(-c3ccc(Cl)cc3)c2-c2ccncn2)CC1 (10 µM) | 0 |
| Cn1ncc(Cl)c1-c1cc(C(=O)N[C@H](CN)Cc2ccc(F)c(F)c2)sc1Cl (10 µM) | 0 |
| O=c1ccc2ccc(O)c(O)c2o1 [Daphnetin] (10 µM) | 0 |
| O=C(Nc1ccc(Cl)c(Cl)c1)Nc1ccc2nnsc2c1 (10 µM) | 0 |
| O=C(O)c1cc(O)c2c(c1)[C@@H]([C@H]1c3cc(C(=O)O)cc(O)c3C(=O)c3c(O[C@@H]4O[C@H](CO)[C@@H](O)[C@H](O)[C@H]4O)cccc31)c1cccc(O[C@@H]3O[C@H](CO)[C@@H](O)[C@H](O)[C@H]3O)c1C2=O [Sennoside B] (2.5 µM) | 0 |
| O=c1nc(N2CCOCC2)oc2c(-c3cccc4c3sc3ccccc34)cccc12 (10 µM) | 0 |
| O=C(Nc1cccc(-c2nncn2C2CC2)c1)c1cc(-n2cnc(C3CC3)c2)ccn1 (10 µM) | 0 |
| CSc1ccc(CN2CCCC(Nc3ccc4[nH]ncc4c3)C2)cc1 (centres undefined) [Rho-Kinase-IN-1] (10 µM) | 0 |
| Oc1ccccc1C(=S)N1CCCC1 (10 µM) | 0 |
| COC(=O)N[C@@H](C)CNc1nccc(-c2cn(C(C)C)nc2-c2cc(Cl)cc(NS(C)(=O)=O)c2F)n1 [Encorafenib] (10 µM) | 0 |
| C=CS(=O)(=O)c1ccc(Nc2nc(OCC3CCCCC3)c3[nH]cnc3n2)cc1 (2.5 µM) | 0 |
| O=c1[nH]ccc2cc(OC3CCNCC3)ccc12 (10 µM) | 0 |
